Experimental data taken from PubChem BioAssay (Tox21).
Where “and” joins values, the source holds several entries; their conditions need not be identical. Equal entries are not always repeated. The inconclusive results got no clear call from the source; some entries with a clear call stand among them for comparison. For some assays here: A potency beside an inconclusive call is a rough fit, not a confirmed value. Calls of active or inactive are those of the source. Unless noted, the call rests on the fitted dose curve; in most records, active means well fitted curve in the direction sought with a large enough effect in the repeat runs; inconclusive means weak or mixed curves; inactive means no such curve, though single readings can be large; an effect the other way counts as inactive or inconclusive.

Sequences of proteins named here, by UniProt entry; tags and fusion partners are left off. A change or cut given only in a name is not applied to a line headed by its entry.
UniProt O75469: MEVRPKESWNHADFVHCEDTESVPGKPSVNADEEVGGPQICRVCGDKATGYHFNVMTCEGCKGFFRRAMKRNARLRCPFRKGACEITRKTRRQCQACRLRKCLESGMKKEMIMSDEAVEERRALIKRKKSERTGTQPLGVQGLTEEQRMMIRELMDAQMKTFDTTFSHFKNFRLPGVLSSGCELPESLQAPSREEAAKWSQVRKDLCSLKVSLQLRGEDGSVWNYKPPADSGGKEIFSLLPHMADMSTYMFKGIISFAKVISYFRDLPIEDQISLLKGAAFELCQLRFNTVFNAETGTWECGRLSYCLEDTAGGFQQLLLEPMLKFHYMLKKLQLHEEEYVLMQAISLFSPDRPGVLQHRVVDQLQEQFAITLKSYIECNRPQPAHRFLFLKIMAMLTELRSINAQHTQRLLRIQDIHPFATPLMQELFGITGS
UniProt P10635, whole entry, looked up: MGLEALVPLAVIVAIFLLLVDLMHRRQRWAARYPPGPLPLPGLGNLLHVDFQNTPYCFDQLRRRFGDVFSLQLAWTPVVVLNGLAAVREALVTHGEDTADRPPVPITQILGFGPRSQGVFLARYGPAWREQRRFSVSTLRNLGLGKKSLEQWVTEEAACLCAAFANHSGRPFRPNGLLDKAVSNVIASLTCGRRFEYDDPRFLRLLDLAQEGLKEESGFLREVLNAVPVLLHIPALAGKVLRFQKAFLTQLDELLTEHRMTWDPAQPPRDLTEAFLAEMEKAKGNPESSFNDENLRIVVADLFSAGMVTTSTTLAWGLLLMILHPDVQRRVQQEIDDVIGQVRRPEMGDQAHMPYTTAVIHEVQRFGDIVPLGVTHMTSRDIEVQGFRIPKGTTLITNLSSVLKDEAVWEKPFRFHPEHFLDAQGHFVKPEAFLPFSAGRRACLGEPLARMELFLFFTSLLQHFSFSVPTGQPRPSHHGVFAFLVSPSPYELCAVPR
UniProt P22303: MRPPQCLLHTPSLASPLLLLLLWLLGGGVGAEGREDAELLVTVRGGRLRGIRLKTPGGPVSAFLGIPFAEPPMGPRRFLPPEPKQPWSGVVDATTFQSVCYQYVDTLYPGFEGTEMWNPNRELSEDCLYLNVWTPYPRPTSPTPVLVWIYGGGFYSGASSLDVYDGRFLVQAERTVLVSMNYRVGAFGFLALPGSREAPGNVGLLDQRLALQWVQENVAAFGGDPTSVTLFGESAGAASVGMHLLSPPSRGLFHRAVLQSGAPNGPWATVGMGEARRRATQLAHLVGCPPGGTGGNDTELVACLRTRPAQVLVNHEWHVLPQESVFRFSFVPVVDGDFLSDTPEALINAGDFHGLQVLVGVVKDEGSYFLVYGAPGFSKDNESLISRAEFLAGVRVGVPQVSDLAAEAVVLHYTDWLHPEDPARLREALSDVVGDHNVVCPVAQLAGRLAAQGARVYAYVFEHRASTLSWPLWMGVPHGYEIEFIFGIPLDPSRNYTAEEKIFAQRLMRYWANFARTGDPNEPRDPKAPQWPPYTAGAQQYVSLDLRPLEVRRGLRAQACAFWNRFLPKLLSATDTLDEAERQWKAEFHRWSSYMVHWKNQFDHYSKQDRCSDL
UniProt Q9R1A7: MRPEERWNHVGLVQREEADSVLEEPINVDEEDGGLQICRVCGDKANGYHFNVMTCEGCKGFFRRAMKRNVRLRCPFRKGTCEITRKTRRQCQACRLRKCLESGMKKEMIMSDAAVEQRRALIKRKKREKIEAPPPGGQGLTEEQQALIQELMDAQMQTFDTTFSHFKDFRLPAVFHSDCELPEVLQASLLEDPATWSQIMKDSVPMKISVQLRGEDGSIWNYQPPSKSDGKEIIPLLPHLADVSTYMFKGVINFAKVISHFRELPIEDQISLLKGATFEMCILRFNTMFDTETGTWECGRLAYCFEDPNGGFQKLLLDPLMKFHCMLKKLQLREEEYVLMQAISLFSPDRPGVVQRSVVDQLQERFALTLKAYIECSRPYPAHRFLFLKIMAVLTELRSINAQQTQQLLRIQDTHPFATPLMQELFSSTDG

Experiments:
[1] = target: Nuclear receptor subfamily 1 group I member 2 (Homo sapiens) (UniProt O75469); test: Human pregnane X receptor (PXR) small molecule agonists, qHTS assay (AID 1346982); further: potency means the concentration at half of the fitted maximal effect; nearly all actives have a fitted effect of over 35% in size
Summary of the method: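 Cells: HepG2 stably carrying PXR-Luc. Medium held 5% charcoal-stripped FBS. Compounds in DMSO added after 5 hr plating, incubated 24 hr, then luminescence quantified with ONE-Glo.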

[2] = target: Cytochrome P450 2D6 (Homo sapiens) (UniProt P10635); test: Cytochrome P450 Family 2 Subfamily D Member 6 (CYP2D6) small molecule antagonists: luciferase reporter qHTS assay (AID 1671196); further: nearly all actives have a fitted effect of over 50% in size; further: potency means the concentration at half of the fitted maximal effect
Summary of the method: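 Enzyme and proluciferin substrate were first combined with test chemical for 10 min at room temperature. Adding NADPH regeneration solution started a 1 h reaction, stopped with luciferin detection reagent and read by luminescence 20 min later.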

[3] = target: Acetylcholinesterase (Homo sapiens) (UniProt P22303); test: Acetylcholinesterase (AChE) small molecule antagonists: colormetric cell-based qHTS assay (AID 1347395; calls by dose curve; further: nearly all actives have a fitted effect of over 30% in size; further: potency means the concentration at half of the fitted maximal effect)
Summary of the method: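 Colorimetric readout: DTNB quantifies thiocholine from acetylthiocholine hydrolysed by endogenous AChE of SH-SY5Y cells (2,000/well, plated overnight). Compound pretreatment 30 min, substrate incubation 90 min, both 37 C.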

[4] = target: Acetylcholinesterase (Homo sapiens) (UniProt P22303); test: Acetylcholinesterase (AChE) small molecule antagonists: fluorescence cell-based qHTS assay (AID 1347398; calls by dose curve; further: potency means the concentration at half of the fitted maximal effect; nearly all actives have a fitted effect of over 50% in size); conditions: Potency: AChE activity
Summary of the method: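 Using neuroblastoma SH-SY5Y cells as the enzyme source, test chemicals are preincubated 30 min at 37 C; AChE-driven acetylthiocholine cleavage is then quantified by thiocholine-dependent Thiolite Green fluorescence after 40 min at room temperature.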

[5] = target: Nuclear receptor subfamily 1 group I member 2 (Rattus norvegicus) (UniProt Q9R1A7); test: Rat pregnane X receptor (rPXR) activation by small molecules, qHTS assay (AID 1346983); conditions: rPXR luciferase reporter cells, One-Glo luminescence, 24 h; max activation: hits give high values; further: on the % scale 0 is the no-effect control and ±100 the full control effect; nearly all actives have a fitted effect of over 20% in size
Summary of the method: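 Cell-based rPXR luciferase reporter assay, 2,000 cells per well, rested 5hr at 37 C before compound addition in DMSO, then 24 hr at 37 C. One-Glo reagent was added and luminescence read after 30 min at room temperature.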

With `CC(C)[C@H](C(=O)O[C@H](C#N)c1cccc(Oc2ccccc2)c1)c1ccc(Cl)cc1` the Potency [1] was active: 4.32 µM and the Potency [2] was “inactive”.
With `O=C(N[C@H]1CN2CCC1CC2)c1cc2ccoc2cn1` the Potency [3] was inconclusive: 56.4 µM [inhibitor, partial curve] and the Potency [4] was inconclusive: 79.6 µM [inhibitor, partial curve, poor fit].
`CCCCCCCCCC[N+](C)(C)CCCCCCCCCC` was tested, and the Potency [3] was inconclusive: 100 µM [inhibitor, single point].
For `NC(=O)OCCCc1ccccc1`, the max activation [5] was inactive: -3.96%.
With `CNC(=O)CSP(=O)(OC)OC` the Potency [3] was inconclusive: 63.3 µM [inhibitor, partial curve] and the Potency [2] was inconclusive: 28.3 µM [inhibitor, full curve, poor fit].
With `CC(C)=CC1C(C(=O)OCc2coc(Cc3ccccc3)c2)C1(C)C` (centres undefined) the Potency [1] was inconclusive: 21.7 µM [activator, partial curve] and the Potency [2] was “inactive”.
With `CC[C@H](C)[C@H]1O[C@]2(C=C[C@@H]1C)C[C@@H]1C[C@@H](C/C=C(\C)[C@@H](O[C@H]3C[C@H](OC)[C@@H](O[C@H]4C[C@H](OC)[C@@H](O)[C@H](C)O4)[C@H](C)O3)[C@@H](C)/C=C/C=C3\CO[C@@H]4[C@H](O)C(C)=C[C@@H](C(=O)O1)[C@]34O)O2` the Potency [3] was “inactive”.
With `c1ccc(C2CC2)c(OCC2=NCCN2)c1` the Potency [3] was inconclusive: 27.5 µM [inhibitor, partial curve].
With `Oc1ccc(-c2ccccc2)cc1` the Potency [1] was active: 60.3 µM and active: 54.5 µM and the Potency [2] was inconclusive: 71 µM [inhibitor, partial curve, poor fit].
